For at least one compound, name, drawing or mass did not settle the structure.
Molecular target: T1, human EAAT1 (Homo sapiens, UniProt P43003)
T1 construct: expressed in transfected cells
Experiment: [3H]-D-Aspartic acid uptake assay, HEK293 cells stably expressing EAAT1
Type: cell-based
Conditions: for Inhibition of [3H]-D-Asp uptake, EAAT1, pIC50±S.E.M.: HEK293 cells stably expressing human EAAT1, value in brackets, n=3-7
Experimental: Table 1: Inhibition of [^3H]-D-Asp uptake in HEK293 cells stably expressing human EAAT1, EAAT2 and EAAT3. The IC50 values are given in μM with pIC50±S.E.M. values in brackets (n=3-7).
The functional properties of the novel compounds of the invention were assessed in a [^3H]-D-Aspartic acid uptake assay using HEK293 cell lines stably expressing the human EAAT subtypes EAAT1, EAAT2 and EAAT3. Furthermore, some of the compounds were assayed at human EAAT1, EAAT2 and EAAT3 and the rat orthologs GLAST, GLT-1 and EAAC-1 in the FLIPR® Membrane Potential (FMP) Blue assay (Molecular Devices, Crawley, UK).
FIG. I depicts a graph showing the concentration-inhibition curves for 1o at the human EAAT subtype EAAT1 stably expressed in HEK293 cell lines in a [^3H]-D-aspartic acid uptake assay. The cells (grown in wells of 96-well plates) were washed twice with assay buffer, and incubated with buffer supplemented with 30 nM [^3H]-D-aspartic acid in the absence (control) or presence of increasing concentrations of 1o at […] for 7 min. The assay mixtures were then quickly removed from the wells, and the cells were washed with 3 times with ice-cold buffer, scintillation fluid was added to each well, and the plate was counted in a TopCounter.

Protein sequences, listed by entry. Tags and fused reporters are not part of them.
UniProt P43003, whole entry: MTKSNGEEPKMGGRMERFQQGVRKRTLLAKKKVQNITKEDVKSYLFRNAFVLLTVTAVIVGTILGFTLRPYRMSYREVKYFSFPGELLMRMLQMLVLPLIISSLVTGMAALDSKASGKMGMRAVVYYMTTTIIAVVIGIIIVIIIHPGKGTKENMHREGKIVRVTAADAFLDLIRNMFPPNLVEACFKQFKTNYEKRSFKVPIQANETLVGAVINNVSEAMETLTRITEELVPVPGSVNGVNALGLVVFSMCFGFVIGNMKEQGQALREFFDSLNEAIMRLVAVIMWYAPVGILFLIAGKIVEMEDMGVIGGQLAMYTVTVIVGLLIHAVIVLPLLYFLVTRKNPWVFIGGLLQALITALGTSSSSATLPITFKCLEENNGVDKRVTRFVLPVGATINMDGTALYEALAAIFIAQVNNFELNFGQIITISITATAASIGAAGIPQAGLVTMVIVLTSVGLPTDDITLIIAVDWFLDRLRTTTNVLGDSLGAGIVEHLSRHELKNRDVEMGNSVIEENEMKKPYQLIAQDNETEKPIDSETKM

SMILES	Inhibition of [3H]-D-Asp uptake, EAAT1, pIC50±S.E.M.	Potency as selective EAAT1 inhibitor over EAAT2,3 in comparison with 1o (in comparison with 1o)
CSc1ccc(C2C(C#N)=C(N)OC3=C2C(=O)CC(c2ccccc2)C3)cc1 (stereo not drawn) [1b]	5.56 ± 0.05	–
N#CC1=C(N)OC2=C(C(=O)CC(c3ccccc3)C2)C1c1ccc(-c2ccccc2)cc1 (stereo not drawn) [1k]	5.67 ± 0.04	–
CC1C(C#N)=C(N)OC2=C1C(=O)CC(c1cccc3ccccc13)C2 (stereo not drawn) [1w, 2-Amino-4-methyl-7-(naphthalene-1-yl)-5-oxo-5,6,7,8-tetrahydro-4H-chromene-3-carbo-nitrile]	–	equipotency
